# The list shows a part of the results.
# B1: GST-Gap1 (Streptococcus parasanguinis), A1C3L5 (protein)
# chain: MFYFVPSWYNGQRQWYYDTPWWFRVKNRMTFDDSVNQVKMFLQGQEEIGLMILNYQPQLRYFLHKQNIFGIYYWSFFDDIQNITRSYTKIIHLKDLNWPEGCEFLYSPFAVVVRLKGEIFAIVNYAEDGNLHSVSFQKNGKVTKDYIFDDRGFLSSILYYDIDERPLYQDYLNINGVWQVREFLKKENDPTPILMINDFSDQTFSKKYYNGWEELIKERLAIFQNNHVENEDVFVLASDTQHNQLVSSIFKEHRKIYSFFGNRFNLENLGQDRISINDATFLVVDTEKNEELLRKTCENLVFKSIPIVRLSPFDSRLRLGHSQTVKEQIIYFHIDNIELDELYSVIAIILELMTLHLDIELRIVTFRQDFQLDLLKTWIIDFIKTNHFEDLLFKQISEGENEIEDEGEIELSRIAMECFTNENQIIKCLDTARLVIDLGIEPDLYTQIASISAGIPQINRVSSDYVIHQKNGLVISDISKLSSAIEFYFDGLFNWNEALIYAVRKMSDYTSGKILKQWKGMLKKK
# How the values were obtained:
# Experiment in all cases: glycan array binding signal (z-score within array); higher = stronger binding
# Details in all cases: glycan notation: IUPAC condensed, linker removed
# [1] = biological target: GalNAc(b1-4)Gal(b1-4)Glc
# In short: (§1)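 The Consortium for Functional Glycomics database supplied 3228 glycan arrays, of which those lacking an available protein sequence were dropped. The binding signal, a within-array Z-score, was averaged across arrays of the same protein sequence and across linkers. Negative scores can be read as non-binding.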
# [2] = biological target: GalNAc(b1-4)GlcNAc
# In short: as §1
# [3] = biological target: GalNAc(b1-4)GlcNAc(b1-2)Man
# In short: as §1
# [4] = biological target: GalNAc(b1-4)GlcNAc(b1-2)Man(a1-3)[GalNAc(b1-4)GlcNAc(b1-2)Man(a1-6)]Man(b1-4)GlcNAc(b1-4)GlcNAc
# In short: as §1
# [5] = biological target: GalNAc(b1-4)GlcNAc(b1-3)GalNAc(b1-4)GlcNAc
# In short: as §1
# [6] = biological target: GalNAc(b1-4)GlcNAc6S
# In short: as §1
# [7] = biological target: GalNAc(b1-6)GalNAc
# In short: as §1
# [8] = biological target: GalNAc3S(b1-4)GlcNAc
# In short: as §1
# [9] = biological target: GalNAc3S(b1-4)GlcNAc3S
# In short: as §1
# [10] = biological target: GalNAc3S(b1-4)[Fuc(a1-3)]GlcNAc
# In short: as §1
# [11] = biological target: GalNAc4S6S(b1-4)GlcNAc
# In short: as §1
# [12] = biological target: GalNAc6S(b1-4)GlcNAc
# In short: as §1
# [13] = biological target: Glc(a1-4)Glc
# In short: as §1
# [14] = biological target: Glc(a1-4)Glc(a1-4)Glc(a1-4)Glc
# In short: as §1
# [15] = biological target: Glc(a1-6)Glc(a1-6)Glc
# In short: as §1
# [16] = biological target: Glc(a1-6)Glc(a1-6)Glc(a1-6)Glc
# In short: as §1
# [17] = biological target: Glc(b1-4)Glc
# In short: as §1
# [18] = biological target: Glc(b1-6)Glc
# In short: as §1
# [19] = biological target: GlcA(b1-3)Gal
# In short: as §1
# [20] = biological target: GlcA(b1-3)GlcNAc
# In short: as §1
# [21] = biological target: GlcA(b1-6)Gal
# In short: as §1
# [22] = biological target: GlcA3S(b1-3)Gal(b1-4)GlcNAc(b1-2)Man
# In short: as §1
# [23] = biological target: GlcA3S(b1-3)Gal(b1-4)GlcNAc(b1-3)Gal(b1-4)Glc
# In short: as §1
# [24] = biological target: GlcNAc(a1-3)Gal(b1-4)GlcNAc
# In short: as §1
# [25] = biological target: GlcNAc(a1-4)Gal(b1-3)GlcNAc
# In short: as §1
# [26] = biological target: GlcNAc(a1-4)Gal(b1-4)GalNAc
# In short: as §1
# [27] = biological target: GlcNAc(a1-4)Gal(b1-4)GlcNAc
# In short: as §1
# [28] = biological target: GlcNAc(a1-4)Gal(b1-4)GlcNAc(b1-3)Gal(b1-4)Glc
# In short: as §1
# [29] = biological target: GlcNAc(a1-4)Gal(b1-4)GlcNAc(b1-3)Gal(b1-4)GlcNAc
# In short: as §1
# [30] = biological target: GlcNAc(a1-4)Gal(b1-4)GlcNAc(b1-3)Gal(b1-4)GlcNAc(b1-3)Gal(b1-4)GlcNAc
# In short: as §1
# [31] = biological target: GlcNAc(a1-4)Gal(b1-4)GlcNAc(b1-3)Gal(b1-4)[Fuc(a1-3)]GlcNAc(b1-3)Gal(b1-4)[Fuc(a1-3)]GlcNAc
# In short: as §1
# [32] = biological target: GlcNAc(a1-6)Gal(b1-4)GlcNAc
# In short: as §1
# [33] = biological target: GlcNAc(b1-2)Gal(b1-3)GalNAc
# In short: as §1
# [34] = biological target: GlcNAc(b1-2)Man(a1-3)[GlcNAc(b1-2)Man(a1-6)]Man(b1-4)GlcNAc(b1-4)GlcNAc
# In short: as §1
# [35] = biological target: GlcNAc(b1-2)Man(a1-3)[GlcNAc(b1-2)Man(a1-6)]Man(b1-4)GlcNAc(b1-4)[Fuc(a1-6)]GlcNAc
# In short: as §1
# [36] = biological target: GlcNAc(b1-2)Man(a1-3)[GlcNAc(b1-4)][GlcNAc(b1-2)Man(a1-6)]Man(b1-4)GlcNAc(b1-4)GlcNAc
# In short: as §1
# [37] = biological target: GlcNAc(b1-2)Man(a1-3)[GlcNAc(b1-4)][GlcNAc(b1-2)Man(a1-6)]Man(b1-4)GlcNAc(b1-4)[Fuc(a1-6)]GlcNAc
# In short: as §1
# [38] = biological target: GlcNAc(b1-2)[GlcNAc(b1-4)]Man(a1-3)[GlcNAc(b1-2)Man(a1-6)]Man(b1-4)GlcNAc(b1-4)GlcNAc
# In short: as §1
# [39] = biological target: GlcNAc(b1-2)[GlcNAc(b1-4)]Man(a1-3)[GlcNAc(b1-4)][GlcNAc(b1-2)Man(a1-6)]Man(b1-4)GlcNAc(b1-4)GlcNAc
# In short: as §1
# [40] = biological target: GlcNAc(b1-2)[GlcNAc(b1-4)]Man(a1-3)[GlcNAc(b1-4)][GlcNAc(b1-2)[GlcNAc(b1-6)]Man(a1-6)]Man(b1-4)GlcNAc(b1-4)GlcNAc
# In short: as §1
# [41] = biological target: GlcNAc(b1-2)[GlcNAc(b1-4)]Man(a1-3)[GlcNAc(b1-4)][GlcNAc(b1-2)[GlcNAc(b1-6)]Man(a1-6)]Man(b1-4)GlcNAc(b1-4)[Fuc(a1-6)]GlcNAc
# In short: as §1
# [42] = biological target: GlcNAc(b1-2)[GlcNAc(b1-6)]Man(a1-6)[GlcNAc(b1-2)Man(a1-3)]Man(b1-4)GlcNAc(b1-4)GlcNAc
# In short: as §1
# [43] = biological target: GlcNAc(b1-2)[GlcNAc(b1-6)]Man(a1-6)[GlcNAc(b1-2)Man(a1-3)]Man(b1-4)GlcNAc(b1-4)[Fuc(a1-6)]GlcNAc
# In short: as §1
# [44] = biological target: GlcNAc(b1-2)[GlcNAc(b1-6)]Man(a1-6)[GlcNAc(b1-2)Man(a1-3)][GlcNAc(b1-4)]Man(b1-4)GlcNAc(b1-4)GlcNAc
# In short: as §1
# [45] = biological target: GlcNAc(b1-2)[GlcNAc(b1-6)]Man(a1-6)[GlcNAc(b1-4)][GlcNAc(b1-2)Man(a1-3)]Man(b1-4)GlcNAc(b1-4)GlcNAc
# In short: as §1
binder,measurement,setting,value
B1,glycan array binding signal (z-score),[1],-0.47
same,glycan array binding signal (z-score),[2],-0.452
same,glycan array binding signal (z-score),[3],-1.49
same,glycan array binding signal (z-score),[4],0.064
same,glycan array binding signal (z-score),[5],0.073
same,glycan array binding signal (z-score),[6],-0.018
same,glycan array binding signal (z-score),[7],-0.113
same,glycan array binding signal (z-score),[8],-0.643
same,glycan array binding signal (z-score),[9],-0.242
same,glycan array binding signal (z-score),[10],-1.08
same,glycan array binding signal (z-score),[11],-0.515
same,glycan array binding signal (z-score),[12],-0.204
same,glycan array binding signal (z-score),[13],-0.016
same,glycan array binding signal (z-score),[14],-0.696
same,glycan array binding signal (z-score),[15],-0.544
same,glycan array binding signal (z-score),[16],0.133
same,glycan array binding signal (z-score),[17],0.202
same,glycan array binding signal (z-score),[18],-0.956
same,glycan array binding signal (z-score),[19],0.519
same,glycan array binding signal (z-score),[20],5.69
same,glycan array binding signal (z-score),[21],-0.482
same,glycan array binding signal (z-score),[22],0.188
same,glycan array binding signal (z-score),[23],-0.819
same,glycan array binding signal (z-score),[24],-0.787
same,glycan array binding signal (z-score),[25],0.048
same,glycan array binding signal (z-score),[26],-0.386
same,glycan array binding signal (z-score),[27],-0.205
same,glycan array binding signal (z-score),[28],-0.146
same,glycan array binding signal (z-score),[29],0.102
same,glycan array binding signal (z-score),[30],0.023
same,glycan array binding signal (z-score),[31],1.06
same,glycan array binding signal (z-score),[32],-0.378
same,glycan array binding signal (z-score),[33],1.1
same,glycan array binding signal (z-score),[34],-0.043
same,glycan array binding signal (z-score),[35],-0.297
same,glycan array binding signal (z-score),[36],-0.492
same,glycan array binding signal (z-score),[37],-0.195
same,glycan array binding signal (z-score),[38],-0.599
same,glycan array binding signal (z-score),[39],-0.272
same,glycan array binding signal (z-score),[40],-0.504
same,glycan array binding signal (z-score),[41],-1.15
same,glycan array binding signal (z-score),[42],0.128
same,glycan array binding signal (z-score),[43],1.03
same,glycan array binding signal (z-score),[44],-0.589
same,glycan array binding signal (z-score),[45],-0.93

# Three successive records out of the list so far, for reference:
binder,measurement,setting,value
B1,glycan array binding signal (z-score),[13],-0.016
same,glycan array binding signal (z-score),[14],-0.696
same,glycan array binding signal (z-score),[15],-0.544

# Reference: the supplement of paper PMC8728848
